Reference: PubChem BioAssay AID1259308 (NCATS, 2017)

Aim: 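Candidate targets for better recombinant protein yield in mammalian cells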 (primary screen)
Cells: human HEK293 embryonic kidney cells stably expressing firefly luciferase (HEK-CMV-Luc2-Hygro)
Knock-down reagent: single siRNA against human genes, 0.8 pmol siRNA per well
Time to read-out: 72 h
Read-out: 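Luciferase light (ONE-Glo) measured on one replicate plate set and viability (CellTiter-Glo) on the other, scaled to a negative control siRNA, with robust z-scores and luciferase per cell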
Scale: total luciferase, z-score: higher = more reporter protein produced
Call rule: 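Active when the median/MAD z-score for overall luciferase is greater than 3; a gene was taken forward for validation with new siRNAs if at least two of its three siRNAs passed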
Calls: active = raised luciferase; inactive = no rise
This is a random part of about 59,000 reagents. In the full data, about 1,510 (2.6%) got an active call. 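Calls use total luciferase alone and ignore viability, so some active siRNAs may act by altering cell number.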 Further read-outs or replicates are left out here. Reagent sequences are not shown.

| gene | PubChem SID | total luciferase, z-score | call |
| --- | --- | --- | --- |
| GCNT4 | SID160740545 | -0.134 | inactive |
| GCNT4 | SID160740546 | -0.271 | inactive |
| GCNT4 | SID160740547 | 0.817 | inactive |
| PAIP2B | SID160767108 | 1.27 | inactive |
| PAIP2B | SID160767109 | 2.15 | inactive |
| PAIP2B | SID160767111 | 0.729 | inactive |
| THAP7 | SID160731953 | -1.17 | inactive |
| THAP7 | SID160750545 | -1.83 | inactive |
| THAP7 | SID160750546 | -1.57 | inactive |
| FSCN3 | SID160739473 | -0.927 | inactive |
| FSCN3 | SID160739474 | -2.14 | inactive |
| FSCN3 | SID160739475 | 0.506 | inactive |
| RC3H1 | SID160758768 | 3.19 | active |
| RC3H1 | SID160758769 | -0.0431 | inactive |
| RC3H1 | SID160758770 | -1.05 | inactive |
| RBIS | SID160767287 | -0.591 | inactive |
| RBIS | SID160767288 | 0.518 | inactive |
| RBIS | SID160767289 | 2.89 | inactive |
| FAM220BP | SID160726010 | 0.585 | inactive |
| FAM220BP | SID160726011 | 0.335 | inactive |
| FAM220BP | SID160770116 | 0.297 | inactive |
| TOMM5 | SID160767311 | 0.729 | inactive |
| TOMM5 | SID160767312 | -0.0375 | inactive |
| TOMM5 | SID160767313 | 0.452 | inactive |
| LINC02447 | SID160773937 | -1.67 | inactive |
| LINC02447 | SID160773938 | -0.531 | inactive |
| LINC02447 | SID160773939 | 2.09 | inactive |
| UNC5C | SID160720468 | -0.286 | inactive |
| UNC5C | SID160720469 | 0.0533 | inactive |
| UNC5C | SID160720470 | -0.0571 | inactive |
| MRTO4 | SID160740196 | -0.0325 | inactive |
| MRTO4 | SID160740197 | -1.34 | inactive |
| MRTO4 | SID160740198 | 0.26 | inactive |
| PDE7A | SID160714014 | 0.679 | inactive |
| PDE7A | SID160714015 | 0.488 | inactive |
| PDE7A | SID160714016 | 0.714 | inactive |
| COL6A3 | SID160746122 | 0.596 | inactive |
| COL6A3 | SID160746133 | -0.4 | inactive |
| COL6A3 | SID160746143 | 0.313 | inactive |
| HTR4 | SID160775464 | -0.322 | inactive |
| HTR4 | SID160775465 | 1.17 | inactive |
| HTR4 | SID160775466 | -0.197 | inactive |
| POFUT4 | SID160760403 | 0.575 | inactive |
| POFUT4 | SID160760404 | -0.625 | inactive |
| POFUT4 | SID160760405 | -1.08 | inactive |
| AMT | SID160717333 | -1.01 | inactive |
| AMT | SID160717342 | 0.487 | inactive |
| AMT | SID160717353 | 0.82 | inactive |
| SRSF1 | SID160716601 | 1.34 | inactive |
| SRSF1 | SID160716602 | 1.31 | inactive |
| SRSF1 | SID160716603 | 1.45 | inactive |
| SHC2 | SID160736929 | 0.782 | inactive |
| SHC2 | SID160736930 | 1.27 | inactive |
| SHC2 | SID160736931 | -0.716 | inactive |
| LOC388282 | SID160765805 | -1.38 | inactive |
| LOC388282 | SID160765806 | -2.48 | inactive |
| LOC388282 | SID160765807 | -0.784 | inactive |

Look-ups from the entries so far.
Under “total luciferase, z-score”, THAP7 [SID160750545] reads -1.83
Under “call”, PDE7A [SID160714014] has inactive
COL6A3 [SID160746133], total luciferase, z-score = -0.4
UNC5C [SID160720470], call → inactive
For “total luciferase, z-score”, UNC5C [SID160720468] is entered as -0.286
Value of FSCN3 [SID160739473] in “call”: inactive
